# No constants are given. Whether binding was seen depends on the method and setting. For some of these results: Binding can be weak; no strength is given. For some of these results: Where a sequence is shown, tags or fusion partners need not be part of it. For some of these results: In cells and extracts the contact can be indirect.
# T1: OsCATC-MYC (rice (Oryza sativa)) (UniProt Q10S82)
# T1 sequence: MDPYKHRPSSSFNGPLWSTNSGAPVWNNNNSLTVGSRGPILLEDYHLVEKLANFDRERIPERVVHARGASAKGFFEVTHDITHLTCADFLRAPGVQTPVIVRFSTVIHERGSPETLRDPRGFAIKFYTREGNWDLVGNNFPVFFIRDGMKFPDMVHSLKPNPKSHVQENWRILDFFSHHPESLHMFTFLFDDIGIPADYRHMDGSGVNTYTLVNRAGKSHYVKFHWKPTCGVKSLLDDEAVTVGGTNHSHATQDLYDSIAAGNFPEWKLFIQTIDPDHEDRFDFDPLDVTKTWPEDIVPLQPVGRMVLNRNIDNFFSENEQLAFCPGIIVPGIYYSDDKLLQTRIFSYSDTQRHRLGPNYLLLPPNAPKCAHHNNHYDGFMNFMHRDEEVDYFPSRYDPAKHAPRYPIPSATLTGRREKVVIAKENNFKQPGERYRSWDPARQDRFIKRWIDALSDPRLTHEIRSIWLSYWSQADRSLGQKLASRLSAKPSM
# Assays:
# [1] = biological target: T1, OsCATC-MYC (rice (Oryza sativa)); test: co-IP; OsAP4-HA co-expressed with OsCATA-MYC or OsCATC-MYC in N. benthamiana leaves; total proteins on MYC-tagged magnetic beads, 4 °C overnight, PBS washes; immunoblot with anti-MYC and anti-HA
# [2] = biological target: BD-OsAP4 (rice (Oryza sativa)); test: two-hybrid; BD-OsAP4 (pGBKT7, bait) with AD fusions (pGADT7, prey) in S. cerevisiae AH109; growth on SD/-Ade/-His/-Leu/-Trp/X-alpha-Gal
# [3] = biological target: OsAP4-YFPN (rice (Oryza sativa)); test: split reporter; BiFC: OsAP4-YFPN with OsCATA-YFPC or OsCATC-YFPC in N. benthamiana leaves, 48 h, confocal microscopy
# [4] = biological target: OsAP4-His (rice (Oryza sativa)); test: pull-down; purified OsAP4-His on His-tagged magnetic beads with OsCATA-GST or OsCATC-GST, 4 °C overnight, washed three times with PBS; immunoblot with anti-GST and anti-His; both purified
molecule,measurement,setting,value
OsAP4-HA (rice (Oryza sativa)) (enzyme),binding,[1],binds
"AD-OsCATC (enzyme, UniProt Q10S82 1-492) MDPYKHRPSSSFNGPLWSTNSGAPVWNNNNSLTVGSRGPILLEDYHLVEKLANFDRERIPERVVHARGASAKGFFEVTHDITHLTCADFLRAPGVQTPVIVRFSTVIHERGSPETLRDPRGFAIKFYTREGNWDLVGNNFPVFFIRDGMKFPDMVHSLKPNPKSHVQENWRILDFFSHHPESLHMFTFLFDDIGIPADYRHMDGSGVNTYTLVNRAGKSHYVKFHWKPTCGVKSLLDDEAVTVGGTNHSHATQDLYDSIAAGNFPEWKLFIQTIDPDHEDRFDFDPLDVTKTWPEDIVPLQPVGRMVLNRNIDNFFSENEQLAFCPGIIVPGIYYSDDKLLQTRIFSYSDTQRHRLGPNYLLLPPNAPKCAHHNNHYDGFMNFMHRDEEVDYFPSRYDPAKHAPRYPIPSATLTGRREKVVIAKENNFKQPGERYRSWDPARQDRFIKRWIDALSDPRLTHEIRSIWLSYWSQADRSLGQKLASRLSAKPSM",binding,[2],binds
"OsCATC-YFPC (enzyme, UniProt Q10S82 1-492) MDPYKHRPSSSFNGPLWSTNSGAPVWNNNNSLTVGSRGPILLEDYHLVEKLANFDRERIPERVVHARGASAKGFFEVTHDITHLTCADFLRAPGVQTPVIVRFSTVIHERGSPETLRDPRGFAIKFYTREGNWDLVGNNFPVFFIRDGMKFPDMVHSLKPNPKSHVQENWRILDFFSHHPESLHMFTFLFDDIGIPADYRHMDGSGVNTYTLVNRAGKSHYVKFHWKPTCGVKSLLDDEAVTVGGTNHSHATQDLYDSIAAGNFPEWKLFIQTIDPDHEDRFDFDPLDVTKTWPEDIVPLQPVGRMVLNRNIDNFFSENEQLAFCPGIIVPGIYYSDDKLLQTRIFSYSDTQRHRLGPNYLLLPPNAPKCAHHNNHYDGFMNFMHRDEEVDYFPSRYDPAKHAPRYPIPSATLTGRREKVVIAKENNFKQPGERYRSWDPARQDRFIKRWIDALSDPRLTHEIRSIWLSYWSQADRSLGQKLASRLSAKPSM",binding,[3],binds
"OsCATC-GST (enzyme, UniProt Q10S82 1-492) MDPYKHRPSSSFNGPLWSTNSGAPVWNNNNSLTVGSRGPILLEDYHLVEKLANFDRERIPERVVHARGASAKGFFEVTHDITHLTCADFLRAPGVQTPVIVRFSTVIHERGSPETLRDPRGFAIKFYTREGNWDLVGNNFPVFFIRDGMKFPDMVHSLKPNPKSHVQENWRILDFFSHHPESLHMFTFLFDDIGIPADYRHMDGSGVNTYTLVNRAGKSHYVKFHWKPTCGVKSLLDDEAVTVGGTNHSHATQDLYDSIAAGNFPEWKLFIQTIDPDHEDRFDFDPLDVTKTWPEDIVPLQPVGRMVLNRNIDNFFSENEQLAFCPGIIVPGIYYSDDKLLQTRIFSYSDTQRHRLGPNYLLLPPNAPKCAHHNNHYDGFMNFMHRDEEVDYFPSRYDPAKHAPRYPIPSATLTGRREKVVIAKENNFKQPGERYRSWDPARQDRFIKRWIDALSDPRLTHEIRSIWLSYWSQADRSLGQKLASRLSAKPSM",binding,[4],no binding
